# Results from the supplement of paper PMC10735217.
# The list shows a part of the results. Repeats in this data set agree poorly, so a single value says little.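 Human kidney-derived cells stably carry a construct in which eight TEAD-binding elements drive luciferase, measured by luminescence in a drug-repurposing library screen. A hit is any compound whose signal exceeds the plate mean by more than five robust Z scores.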
# Tested on: HEK293A TEAD-LUC reporter
# Test: TEAD-luciferase reporter activity (YAP activation), robust Z score vs plate; higher = stronger YAP/TEAD activation
# Settings: 24 h
SMILES,TEAD-luciferase reporter activity (compound concentration: 200 nM),TEAD-luciferase reporter activity (compound concentration: 10 uM),TEAD-luciferase reporter activity (compound concentration: 2 uM)
Cc1noc(NS(=O)(=O)c2ccc(N)cc2)c1C [Sulfisoxazole127-69-5],inactive: -1.71,inactive: 1.56,–
Cc1noc(NS(=O)(=O)c2ccc(N)cc2)c1C [Sulfafurazole],–,–,inactive: -1.89
Nc1ncnc2c1ncn2[C@@H]1O[C@@H]2CO[P@@](=O)([S-])O[C@@H]3[C@H](O)[C@@H](CO[P@@](=O)([S-])O[C@H]2[C@H]1O)O[C@H]3n1cnc2c(N)ncnc21,inactive: 0.605,inactive: 1.47,inactive: -0.254
CC1=C(C=O)C(C)(C)CC=C1 [Safranal],inactive: -1.5,inactive: 0.835,inactive: 2.37
CC[C@]12C=CCN3CC[C@@]4(c5cc([C@@]6(C(=O)OC)C[C@@H]7C[C@@H](C(C)(F)F)CN(Cc8c6[nH]c6ccccc86)C7)c(OC)cc5N(C)[C@H]4[C@@](O)(C(=O)OC)[C@@H]1OC(C)=O)[C@@H]32 [Vinflunine (Tartrate)],inactive: -1.24,inactive: 1.05,inactive: 4.25
Cc1cc(F)ccc1-c1nc(NC(CO)CO)nc2c1ccc(=O)n2-c1c(F)cccc1F [Dilmapimod],inactive: 0.0445,inactive: -1.52,inactive: -1.78
C[C@H]1O[C@H](O[C@H]2[C@H](O)[C@@H](O)[C@@H](O[C@H]3[C@H](O)[C@@H](O)[C@H](O)O[C@@H]3CO)O[C@@H]2CO)[C@H](O)[C@@H](O)[C@@H]1N[C@H]1C=C(CO)[C@@H](O)[C@H](O)[C@H]1O [Acarbose],inactive: -1.45,inactive: -0.996,inactive: -0.343
O=C(c1c(O)nc2cc(Cl)ccc2c1O)C1CC1,inactive: -2.58,inactive: 1.88,inactive: 2.12
CCN(CC)CCCNc1nccc2c(C)c3[nH]c4ccc(OC)cc4c3c(C)c12,inactive: 1.13,inactive: 1.88,inactive: 4.57
CC1(C)Oc2ccc(C#N)cc2[C@@H](N2CCCC2=O)[C@@H]1O [Cromakalim],inactive: -1.29,active: 6.36,inactive: 1.18
CC(C)NC(=O)N(C(=O)[C@H]1CC[C@H]2[C@@H]3CC[C@H]4N(C)C(=O)CC[C@]4(C)[C@H]3CC[C@]12C)C(C)C,inactive: 0.498,inactive: -0.369,inactive: -0.034
C[C@H](NC(=O)Cc1ccccc1)C(=O)Nc1ccc(C2S/C(=N\c3cccc(F)c3)N(Cc3ccccc3)C2=O)cc1 (stereo partly specified),inactive: 2.34,inactive: -1.43,inactive: -1.79
CC(=O)NC1(c2ccccc2)CCN(CCC(CN(C)C(=O)c2ccccc2)c2ccc(Cl)c(Cl)c2)CC1 (stereo unspecified),inactive: 1.94,inactive: -0.0915,inactive: 0.409
"CC1CC2[C@@H]3CC(F)C4=CC(=O)C=C[C@]4(C)C3(F)[C@@H](O)C[C@]2(C)C1(OC(=O)c1ccco1)C(=O)SCF (stereo partly specified) [fluticasone furoate DPI, GSK]",inactive: -1.01,inactive: -1.06,–
CC1CC2[C@@H]3CC(F)C4=CC(=O)C=C[C@]4(C)C3(F)[C@@H](O)C[C@]2(C)C1(OC(=O)c1ccco1)C(=O)SCF (stereo partly specified) [fluticasone furoate DPI],–,–,inactive: 0.107
CCN1CCN(C(=O)N[C@@H](C(=O)N[C@]2(OC)C(=O)N3C(C(=O)O)=C(CSc4nnnn4C)CS[C@@H]32)[C@H](C)O)C(=O)C1=O [cefbuperazone],inactive: -0.96,inactive: -0.293,inactive: -0.78
COc1c(C(O)c2ncc([N+](=O)[O-])n2C)cccc1C(C)(C)C (stereo unspecified),inactive: -0.805,inactive: -0.567,inactive: -1.65
CC(C)=CCC/C(C)=C/CC/C(C)=C/CC/C(C)=C/CCC(=O)N1CCN(C)CC1,inactive: -1.36,inactive: 1.8,inactive: -0.231
Cc1ccnc(NC(=O)C(C)c2cccc(C(=O)c3ccccc3)c2)c1 (stereo unspecified) [piketoprofen],inactive: -2.62,inactive: 1.23,inactive: 0.896
O=C(Nc1cnc(-c2ccncc2F)c(-c2cccnc2)n1)C1CC1,inactive: -0.0601,inactive: -0.702,inactive: -0.476
COc1ccc(Cl)cc1-c1cc(=O)[nH]c(=S)n1CC(N)=O,inactive: 1.12,inactive: 0.622,inactive: -0.723
COc1cc(CNC(=O)CCCC/C=C/C(C)C)ccc1O [Capsaicin],inactive: 0.568,inactive: 1.13,–
COc1cc(CNC(=O)CCCC/C=C/C(C)C)ccc1O [civamide],–,–,inactive: -1.24
O=C(N[C@@H]1c2ccccc2C[C@@H]1c1ccc(O)cc1)C(c1ccccc1)c1ccccc1,inactive: -0.889,inactive: 0.557,inactive: 2.27
CNC(=O)c1c(-c2ccc(F)cc2)oc2cc(N(CCO)S(C)(=O)=O)c(C3CC3)cc12 [nesbuvir],inactive: -1.31,inactive: 0.616,inactive: -1.04
CCN/C(=N\S(=O)(=O)c1ccc2c(c1)CCN2C(C)=O)N1CC(CC)C=N1 (stereo unspecified),inactive: -2.22,inactive: -0.588,inactive: -0.691

SMILES,TEAD-luciferase reporter activity (compound concentration: 200 nM),TEAD-luciferase reporter activity (compound concentration: 10 uM),TEAD-luciferase reporter activity (compound concentration: 2 uM)
COc1cc2c(-c3ccc4c(c3)OCO4)c(C(=O)O)n(Cc3ccc4c(c3)OCO4)c2cc1OCc1ccccc1,inactive: -1.89,inactive: -0.359,inactive: -0.417
CCOc1ccc2c(c1)NCC2(C)C,inactive: -0.0517,inactive: -0.164,inactive: -0.485
CN1CCN(C(=O)c2cccc(-c3nc(N)nc(-c4ccccc4O)n3)c2)CC1,–,–,inactive: -0.881
Cc1cnc(C(=O)N[C@@H]2CCCCC/C=C\[C@@H]3CC3(C(=O)NS(=O)(=O)C3CC3)NC(=O)[C@@H]3CC(Oc4nc5ccccc5c5ccccc45)CN3C2=O)cn1 (stereo partly specified) [Paritaprevir],inactive: -1.32,inactive: -0.00251,inactive: -0.366
O=C(O)c1ccccc1OS(=O)(=O)[O-],inactive: -1.09,inactive: -0.518,inactive: -1.88
CC=CC(=O)N(CCC)C(CC)C(=O)N(C)C (stereo unspecified),inactive: -0.934,inactive: -0.226,inactive: -0.887
O=C(O)Cc1csc(/N=C2\SC[C@@H]3Cc4ccccc4CN23)n1,inactive: -1.71,inactive: -0.00585,inactive: -0.0557
COc1cc(CN2CCCCC23Cc2ccccc2CNC3=O)cc(OC)c1 (stereo unspecified),inactive: -0.561,inactive: 0.462,–
CC(C)(O)c1ccn2c(-c3ccc(F)c(-c4c(F)cccc4C#N)c3)cnc2n1 [GABAalpha2/alpha3 agonists],inactive: -1.06,inactive: -0.481,inactive: 1.96
O=C(/C(=C/c1ccc(Cl)cc1Cl)n1ccnc1)c1ccc(Cl)cc1,inactive: -1.19,inactive: 0.551,inactive: -1.68
CC(=O)NC(CCC(N)=O)C(=O)O (stereo unspecified),inactive: 1.16,inactive: 0.808,inactive: -0.9
C#C[C@]1(O)CC[C@H]2[C@@H]3[C@H](C)CC4=C(CCC(=C)C4)[C@H]3CC[C@@]21C,inactive: -0.671,inactive: -1.89,inactive: 0.0734
O=C1c2cc(CCCCO)ccc2OCc2ccsc21,inactive: -1.64,inactive: 1.88,inactive: 1.4
CCN(CC(=O)N[C@@H](CC(=O)O)C(=O)N[C@H](CC1CCCCC1)C(N)=O)C(=O)CCCC1CCNCC1 [Alnidofibatide],inactive: -1.16,inactive: 0.46,inactive: -0.621
COc1c(N2CC(C)C(N)C2)c(F)cc2c(=O)c(C(=O)O)cn(C3CC3)c12 (stereo unspecified),inactive: -0.946,inactive: 0.311,inactive: -1.31
O=Cc1ccccc1O[C@@H]1O[C@H](CO)[C@@H](O)[C@H](O)[C@H]1O,inactive: 0.78,inactive: -0.0121,inactive: 1.99
O=C(C1CCCCC1)N1CC(=O)N2CCCc3ccccc3C2C1 (stereo unspecified) [Epsiprantel],inactive: -0.42,inactive: -0.917,inactive: 0.916
C/C=C1\CC[C@H]2[C@@H]3[C@@H](O)[C@H](O)[C@H]4C[C@@H](O)CC[C@]4(C)[C@H]3CC[C@]12C,inactive: 0.774,active: 7.38,inactive: 1.32
COc1ccc(C[C@H]2c3cc(OC)c(OC)cc3CCN2[C@@H](C(=O)NC(C)C)c2ccccc2)cc1OC,inactive: -0.862,inactive: 0.734,inactive: -0.741
CCN(CC)C(COC(=O)c1ccc(N)cc1)CC(C)C (stereo unspecified),inactive: -1.22,inactive: 0.0668,inactive: -0.385
C[C@@H]1CCC[C@H](C)N1[n+]1cc([NH-])on1,inactive: -0.411,inactive: 1.47,inactive: -2.25
c1ccc(SCCCNCCC(c2ccccc2)c2ccccc2)cc1 [tiopropamine],inactive: -0.43,inactive: 3.27,inactive: -0.747
CN1CCN(C2=Nc3cc(F)ccc3Cc3ccccc32)CC1,inactive: -1.76,inactive: -0.382,–
CN1CCN(C2=Nc3cc(F)ccc3Cc3ccccc32)CC1 [fluperlapine],–,–,inactive: 0.816
C[C@@H]1C[C@@](N)(C(=O)O)[C@H]2C1[C@@H]2C(=O)O (stereo partly specified),inactive: -1.44,inactive: 0.726,inactive: 0.736
CN(C)CCCC1(CCCN(C)C)c2ccccc2Nc2ccc(Cl)cc21,inactive: -1.13,inactive: -0.641,inactive: 2.89

# Four consecutive entries from above, for reference:
SMILES,TEAD-luciferase reporter activity (compound concentration: 200 nM),TEAD-luciferase reporter activity (compound concentration: 10 uM),TEAD-luciferase reporter activity (compound concentration: 2 uM)
O=C(Nc1cnc(-c2ccncc2F)c(-c2cccnc2)n1)C1CC1,inactive: -0.0601,inactive: -0.702,inactive: -0.476
COc1ccc(Cl)cc1-c1cc(=O)[nH]c(=S)n1CC(N)=O,inactive: 1.12,inactive: 0.622,inactive: -0.723
COc1cc(CNC(=O)CCCC/C=C/C(C)C)ccc1O [Capsaicin],inactive: 0.568,inactive: 1.13,–
COc1cc(CNC(=O)CCCC/C=C/C(C)C)ccc1O [civamide],–,–,inactive: -1.24
